The exact form of at least one protein or probe is not confirmed. A weaker result is weaker than the reference pair of the same experiment. For some of these results: Results from cells or extracts need not show a direct contact.
How the values were obtained:
endogenous Hnrnpa2b1 = endogenous Hnrnpa2b1 (UniProt O88569); test: pull-down and immunoblot; settings: EXOmotif > RNA 114 > RNA 276; pull-down: 25 mM HEPES pH 7.5, 100 mM NaCl, 4 C; protein in an extract; label: 5'-biotin-TEG
[1] = target: GST-hnRNPA2B1 (Homo sapiens) (UniProt P22626); test: AlphaScreen saturation binding; settings: nanomolar range, lower affinity than EXOmotif, Kd only in figure, AlphaScreen: 25 mM HEPES pH 7.4, 100 mM NaCl, 0.01% BSA, RT 1 h, REMSA: 20 mM HEPES pH 7.5, 50 mM KCl, 0.5 ug BSA, 0.25% glycerol, recombinant protein, protein details: N-terminal GST (pGEX-6P-1), label: 5'-biotin-TEG

The chains behind the UniProt entries cited, without tags or fusion partners. Where a name states a change or a piece, a line headed by the entry shows the natural chain unless it says otherwise.
UniProt O88569: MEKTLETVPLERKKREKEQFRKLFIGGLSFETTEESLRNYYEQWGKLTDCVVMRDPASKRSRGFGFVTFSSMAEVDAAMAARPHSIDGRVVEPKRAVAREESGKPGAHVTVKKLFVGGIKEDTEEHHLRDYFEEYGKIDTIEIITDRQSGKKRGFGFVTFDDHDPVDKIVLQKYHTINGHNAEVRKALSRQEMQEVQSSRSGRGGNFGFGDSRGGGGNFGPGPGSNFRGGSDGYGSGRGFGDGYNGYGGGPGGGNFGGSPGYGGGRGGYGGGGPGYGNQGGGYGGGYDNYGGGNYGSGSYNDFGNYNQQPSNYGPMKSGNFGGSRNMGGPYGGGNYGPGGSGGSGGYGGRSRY
UniProt P22626: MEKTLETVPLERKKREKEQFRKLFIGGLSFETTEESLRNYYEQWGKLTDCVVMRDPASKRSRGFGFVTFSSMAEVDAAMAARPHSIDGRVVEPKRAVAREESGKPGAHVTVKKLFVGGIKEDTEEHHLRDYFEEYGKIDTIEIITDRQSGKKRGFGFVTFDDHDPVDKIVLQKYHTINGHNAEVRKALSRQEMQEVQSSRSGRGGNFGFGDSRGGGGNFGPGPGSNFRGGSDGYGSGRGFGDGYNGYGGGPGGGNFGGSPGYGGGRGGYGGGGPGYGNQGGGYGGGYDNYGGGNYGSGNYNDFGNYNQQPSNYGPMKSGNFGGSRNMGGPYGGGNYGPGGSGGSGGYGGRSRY

Row | Sequence | binding result (endogenous Hnrnpa2b1) | binding result [1]
1 | AAGGACUAGC [RNA 114] | binds more weakly | binds more weakly
2 | AGGACUGC [RNA 276] | binds more weakly | 
3 | GGGGAGGUUAGGGAGGAGGGGGGUAGGCGCC [EXOmotif RNA (biotin)] | binds | 
